Changes are numbered by the printed parent chain. These are yes or no findings as the source states them, for the method shown. In cells and extracts the contact can be indirect. Some binding calls cover weakened binding; strength is not graded here. Sequences can lack the tags named with a protein.

This is an account of results in article doi:10.1101/2024.11.01.621505.

One assay deals with T1, CCR9-RlucII (human) (UniProt P51686).
T1 sequence: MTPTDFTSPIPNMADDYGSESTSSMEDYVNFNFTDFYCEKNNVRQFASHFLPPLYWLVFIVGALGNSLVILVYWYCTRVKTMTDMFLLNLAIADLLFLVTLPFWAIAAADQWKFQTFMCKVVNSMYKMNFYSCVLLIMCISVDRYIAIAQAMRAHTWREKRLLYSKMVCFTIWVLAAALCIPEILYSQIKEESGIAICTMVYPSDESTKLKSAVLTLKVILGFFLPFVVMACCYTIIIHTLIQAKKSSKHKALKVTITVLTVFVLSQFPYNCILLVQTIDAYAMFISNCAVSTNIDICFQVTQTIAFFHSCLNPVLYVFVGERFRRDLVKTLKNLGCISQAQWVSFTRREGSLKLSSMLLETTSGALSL
As to the kind of experiment: FRET or BRET. (In general: In BRET a luciferase serves as donor, and the signal depends on an acceptor being close.)

Assay [1] deals with T2, CCR9 C2-RlucII (T362A/T363A/S364A/S368A) (human) (UniProt P51686).
T2 sequence: T1 sequence with T362A, T363A, S364A, S368A
Description: FRET or BRET.

On to “GFP10-β-arrestin2 (from UniProt P32121 1-409)”, for which the binding entry (in the assay with CCR9-RlucII (human); in assay [1]) was “binds” each time.
